According to PubChem BioAssay AID1347423 (Functional Genomics Laboratory (NCATS/FGL), 2020):
Out of some 52,000 sequences screened, about 210 (0.4%) were called active.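 Rule for the calls: active = gene whose silencing raises cell survival under the drug, median off-target-corrected z-score across its silencing RNAs 2 or more; inactive = the rest.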 This is one part of the list.

Assay: Resistance to Poly (ADP-Ribose) Polymerase inhibitor: Gene Identification via Genome-wide siRNA Screen
Settings: mouse BRCA2 R2336H ES cells, olaparib, CellTiter-Glo viability; hits give high values
Outline: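 Mouse BRCA2 R2336H ES cells were reverse-transfected with siRNA (20 nM final), treated at 48 h with 500 nM olaparib, and read by CellTiter-Glo after 72 h. Scores: MAD-based z per siRNA, median per gene, seed off-target correction.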
For “GGCUCUCUGAGGAUUCGAATT against 4930544M13Rik”, the z-score was inactive: -0.0503. In the case of “GGAUCCUGAAACCAUGAGCTT against E130306I01Rik”, the z-score is reported as inactive: 0.928. For GGCUAAAUAUUACCACUGATT against Dyrk3, the z-score was inactive: -0.964. In the case of “GCAUGGUAUUUCAUAAAGCTT against 6530418L21Rik”, the z-score is reported as inactive: 0.414. For GGACUUUUCUGCUAUUUACTT against Kcnh2, the z-score was inactive: 0.361. In the case of “GCAUUUAUGGAGUACUUACTT against 2810024B22Rik”, the z-score is reported as inactive: 1.1. In the case of GGACAAAAGACAAAUACCGTT against Cdx2, the z-score is reported as inactive: -1.42. With CCCGUUCGUGCAUGAGUUATT against AI505034 the z-score was inactive: 0.686. For “CCAUUGAUCCCAUGAUCUUTT against 1110037N09Rik”, the z-score was inactive: 0.163. In the case of CCGUGCAACAAAAACUGGATT against Tnpo1, the z-score is reported as inactive: 0.68. For “GGGCAUUGUUGUUUCUAUUTT against 2810489O06Rik”, the z-score was inactive: 0.685. With GGUUGGACAAAAAGAAUCUTT against Ifngr1 the z-score was inactive: 1.24. In the case of GGUGUUGGAUUCCAAUCCCTT against Ube1dc1, the z-score is reported as inactive: -0.00137. For CCUUGGACUAUGGCAAAAATT against Neurod6, the z-score was inactive: -0.626. With CGCAUACUGUGGAAUAGUUTT against Spag4 the z-score was inactive: 0.371. With GGCUUUUAGUACUGAUAGUTT against Neu3 the z-score was inactive: -0.265. For CCAUUAUAACUGUAUCUGATT against Gm609, the z-score was inactive: 0.0458. For GGCCUUUUCAACUUGUGGGTT against Olfr1048, the z-score was inactive: 0.715. In the case of “GGCUUAGGAAUCUAGGACUTT against D830044D21Rik”, the z-score is reported as inactive: -2.24. With “GGUACAAUGAAAGUCUCACTT against A230103N10Rik” the z-score was inactive: 0.873. In the case of CGAAAGGUCAAAUUAACAGTT against Serpinb5, the z-score is reported as inactive: 0.304. In the case of GGGAACAAAAUCCAUGACGTT against Tdo2, the z-score is reported as inactive: -1.36. In the case of CCGAAUCUCUCACGUGCCATT against Rtn4r, the z-score is reported as inactive: 1.21. For GGUCUAGCUCACAUCACACTT against C2, the z-score was inactive: 2.31. For “GCUGUCAAACUGCCUCAACTT against 1700020H15”, the z-score was inactive: -0.472. In the case of “GGAACAUGGAGAAUGUCUATT against 4930465P12Rik”, the z-score is reported as inactive: -1.35. With “GCCAGUCACCAAUUCCAAATT against D3Ertd194e” the z-score was inactive: -0.602. For GGUUUUCCAAGGUGGGCAUTT against Rp1hl1, the z-score was inactive: -1.94. For GGAAUUGCUAUCUUUUGCATT against Itm1, the z-score was inactive: 0.168. With CCUAGUGACUUUAAUGGGATT against Mrgprf the z-score was inactive: 0.248. For “GCAUAUAACCGAGUUGAUUTT against E030027H19Rik”, the z-score was inactive: 0.696. With GGUACUUCCUACCUAACAGTT against Nipa1 the z-score was inactive: 0.411. With CGACCUAAUGACAUUAUCATT against Egln3 the z-score was inactive: 0.342. With “GGACCUCUUCAAAACCACCTT against E230022H04Rik” the z-score was inactive: -0.472. With GGUGGAAAUCGAUAAAACUTT against Slc15a1 the z-score was inactive: -0.613. In the case of GGAUGAAUACAGUGAAUAUTT against Ppil3, the z-score is reported as inactive: -0.727. In the case of GGAAACCUUUUCAUUAACATT against Il23r, the z-score is reported as inactive: -0.0443. With CCGUGUGAAUCCCUGCAUUTT against Aldoa the z-score was inactive: -2.07. For GCACAUAUGUCUUUCCCAGTT against Fbxl7, the z-score was inactive: 3.72. With GGAGUUGAAGAGAAGCAGGTT against Tac4 the z-score was inactive: -1.65. For GCGAGCCAAGUUUGAACUUTT against Elovl6, the z-score was inactive: -0.4. With GGCUCAAGAUAUCUAAGUATT against Olfr656 the z-score was inactive: 1.38. With GGCCUUCAGUCCAUUUUUCTT against Sms the z-score was inactive: -0.0935. In the case of GGAGAGGACAGAAAGCAAATT against Gpr24, the z-score is reported as inactive: 2.03. In the case of UCACAAUGGAUAUUUACCUTT against Olfr693, the z-score is reported as inactive: 0.636. With GGGAAUGUGUUCAAAAACATT against Rpl19 the z-score was inactive: -3.12. For CGAGGGCUACCUCAACAACTT against Syngr1, the z-score was inactive: 0.539. For “GGAAGAUGACAAGUUGAUCTT against 4930422J18Rik”, the z-score was inactive: 0.306. With CGAAAGAGAUGAUGAUAAUTT against Arrdc3 the z-score was inactive: -0.117. For GGCCUUGUAUGAAUUAUUUTT against Sqle, the z-score was inactive: 0.519. With GCCUCGAUGCAAGAUGAUGTT against Tmem24 the z-score was inactive: -0.358. With GGAGUUCAAUUCAUUGCCATT against Ptpre the z-score was inactive: 0.918. With “GCACCAUACCUACCACAUATT against 1110034C04Rik” the z-score was inactive: -0.91. With CAACACUGCCUCUUGCACATT against V1rh6 the z-score was inactive: 1.21. In the case of GCCUACGUGAAAUCUCACATT against Lmyc1, the z-score is reported as inactive: 1.72. In the case of GCCAGUUGAAACCUAAACATT against Slc35d2, the z-score is reported as inactive: 0.0786. With GGAAAUCUCAGGUGAGGUCTT against Mclc the z-score was inactive: -1.73. In the case of GGAAAUAGUCAAAAGCUAUTT against Gpc5, the z-score is reported as inactive: -0.0312. In the case of GGUUCUGCCAUGGAGGAAUTT against Svs5, the z-score is reported as inactive: -1.01. In the case of GGGAGUCCCUGUGCUUAUATT against Arl4, the z-score is reported as inactive: -1.44. For CCUAAUAGAUGAAUCCAAUTT against Prg, the z-score was inactive: 1.1. With GCUGAGAUAAGAAGUUUAATT against H2afy2 the z-score was inactive: 0.98. With “GGAUGCUACAAAUUCACCUTT against 1810029B16Rik” the z-score was inactive: -0.635. In the case of GGAACAGCUAAAGUUGGGATT against Kcnj9, the z-score is reported as inactive: 0.597. For “GGGUAUUUUGACAAUUUGGTT against 9430095K15Rik”, the z-score was inactive: 0.348. In the case of “GCAUCAAUGGGCUAUUGAUTT against C030018L16Rik”, the z-score is reported as inactive: -0.45. For GGAGAAGAUCAAGAUGUUCTT against AL024210, the z-score was inactive: 0.786. For GGCCCAGAUUGACCAGUAUTT against Rtn2, the z-score was inactive: -2.05. With CCCUUUAUACCUUUGUGUATT against Stat5a the z-score was inactive: 0.602. In the case of GGCUUACCAACAGCAAACATT against Fzd1, the z-score is reported as inactive: 0.56. In the case of GGAGUUUGAACAAGAAAUATT against Prss12, the z-score is reported as inactive: 0.182. With GGUGUGUGAAAUCACUCACTT against BC019806 the z-score was inactive: 0.312. With GGACUGUGCAACUUUGUGGTT against Timp3 the z-score was inactive: 0.205. With GGAGUAGCAUCAAUGUUUATT against Ebpl the z-score was inactive: -0.106. In the case of GGAUUUUUAACCAAAGGAATT against Gnpnat1, the z-score is reported as inactive: -0.323. For GCUUGGAAUAUAGGUUAUATT against DXImx39e, the z-score was inactive: -1.8. With CCGAUUCAUUGAGUCUGGGTT against Lfng the z-score was inactive: 0.762. In the case of GGUUUCAGGUGGACUUCCATT against Lgals12, the z-score is reported as inactive: -0.443. For GGUAGAAGACAUUCAGAUGTT against Nr4a2, the z-score was inactive: 0.377. For CCAUUUGUAACAUGAUAGCTT against Ctss, the z-score was inactive: 0.57. For GGAAGUCAAGAAAGUGGCCTT against H1f0, the z-score was inactive: 0.618. With “CCUAAGAACCCUGAUCCUATT against A030005L19Rik” the z-score was inactive: 0.67. With GCCAAGAGGACAUUUGGCATT against Kif24 the z-score was inactive: 0.147. With CCCUCAUAGUAACAGGAUGTT against MGC68323 the z-score was inactive: 0.759. In the case of “GCACAAAUGGCACUAUUGATT against D19Ertd386e”, the z-score is reported as inactive: 0.133. In the case of CCCUCAAGAAUAUUUAACCTT against Smarcc1, the z-score is reported as inactive: -0.562. In the case of GGAGAUGCUAGAAAUUGUGTT against Hpca, the z-score is reported as inactive: 1.1. With GCCCAGGCAAAAUAAGGAGTT against Itpkc the z-score was inactive: -0.134. For “GCUUUAGGUAUGGUCCUAATT against A430072C10Rik”, the z-score was inactive: -0.143. With GCCAAAUAUUGCUUUGUUGTT against Gadd45a the z-score was inactive: -0.341. For GGAGCAUUAUGCUUUGUGGTT against Mgat1, the z-score was inactive: -0.912. For “GGCCUUUGCACGUGGAUUGTT against B230312I18Rik”, the z-score was inactive: 1.55. With GGUAGCAGUUGGACCUAAUTT against Set7 the z-score was inactive: 0.789. With CCUAUAAAGCUCUAAAGGATT against Gpiap1 the z-score was inactive: -0.324. For GCUUGUGCUGAAUUACACCTT against Vps35, the z-score was inactive: 0.462. With GGAUGAGUCUUUAGAAGAATT against MGC91194 the z-score was inactive: -2.02. In the case of “GCCUCAACAUGAUCCCGAGTT against 1700011F14Rik”, the z-score is reported as inactive: 2.64. In the case of GCAUUGUUAGUACUUAGCUTT against V1ri10, the z-score is reported as inactive: -0.167. In the case of “GGACGAGUACUGCUACAAUTT against 1500003O22Rik”, the z-score is reported as inactive: -0.637. In the case of GGAUCCAGACUUAAGCUUATT against BC021513, the z-score is reported as inactive: 0.466. For “CGCCGACAGAGUUCAGAAATT against 4930555I21Rik”, the z-score was inactive: 2.34. With GCUGAUCAUCCGUUUCACUTT against Hdc the z-score was inactive: -0.487. In the case of GGGUGUUCGUUAGUCCUCUTT against Dlat, the z-score is reported as inactive: 2.44. In the case of “GGUUCUUUGGAAUGCUUUUTT against 2900073G15Rik”, the z-score is reported as inactive: 3.49.
